# Measurements reported in the supplement of paper PMC8728848.
# The other results are listed elsewhere or left out.
# B1: R2-fiber (Pseudomonas aeruginosa), Q9S576 (protein)
# chain: HHHHHHKVAKDLVVSLAYQVRTEDGVLVDESPVSAPLDYLHGHGSLISGLETALEGHEVGDKFDVAVGANDAYGQYDENLVQRVPKDVFMGVDELQVGMRFLAETDQGPVPVEITAVEDDHVVVDGNHMLAGQNLKFNVEVVAIREATEEELAHGHVHGAHDHHHDHDHDGCCGGHGHDHGHEHGGEGCCGGKGNGGCGCHENLYFQGVTAGMALAATDIPGLDASKLVSGVLAEQRLPVFARGLATAVSNSSDPNTATVPLMLTNHANGPVAGRYFYIQSMFYPDQNGNASQIATSYNATSEMYVRVSYAANPSIREWLPWQRCDIGGSFTKEADGELPGGVNLDSMVTSGWWSQSFTAQAASGANYPIVRAGLLHVYAASSNFIYQTYQAYDGESFYFRCRHSNTWFPWRRMWHGGDFNPSDYLLKSGFYWNALPGKPATFPPSAHNHDVGQLTSGILPLARGGVGSNTAAGARSTIGAGVPATASLGASGWWRDNDTGLIRQWGQVTCPADADASITFPIPFPTLCLGGYANQTSAFHPGTDASTGFRGATTTTAVIRNGYFAQAVLSWEAFGR
# Experiments:
# Assay in all cases: glycan array binding signal (z-score within array); higher = stronger binding
# Conditions in all cases: glycan notation: IUPAC condensed, linker removed
# [1] = biological target: Neu5Gc(a2-8)Neu5Gc(a2-3)Gal(b1-4)GlcNAc(b1-3)Gal(b1-4)GlcNAc
# Outline: (§1)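 The binding signal is a Z-score computed within each array and averaged over linkers. Arrays of the same protein sequence at different concentrations or buffers were also averaged together. Data originate from 3228 arrays in the Consortium for Functional Glycomics database, kept only where the protein sequence was available.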
# [2] = biological target: Neu5Gc(a2-8)Neu5Gc(a2-6)Gal(b1-4)GlcNAc
# Outline: as §1
# [3] = biological target: Neu5Gc(b2-6)Gal(b1-4)GlcNAc
# Outline: as §1
binder,measurement,setting,value
B1,glycan array binding signal (z-score),[1],-0.193
same,glycan array binding signal (z-score),[2],-0.075
same,glycan array binding signal (z-score),[3],-0.155
